# According to publication PMC6769256:
# Target: GFP-tagged Dm HELZ (CG9425) (Drosophila melanogaster) (UniProt Q9VUH9)
# Test: co-IP; GFP immunoprecipitation from Dm S2 cells co-transfected with GFP-Dm HELZ (bait) and an HA-tagged Dm protein; lysates treated with RNase A before IP; Western blot
row,binding,Binder
1,no binding,"HA-tagged Dm Me31B (fly orthologue of mammalian DDX6) (protein, UniProt P23128 1-459) MMTEKLNSGHTNLTSKGIINDLQIAGNTSDDMGWKSKLKLPPKDNRFKTTDVTDTRGNEFEEFCLKRELLMGIFEKGWERPSPIQEAAIPIALSGKDVLARAKNGTGKTGAYCIPVLEQIDPTKDYIQALVMVPTRELALQTSQICIELAKHLDIRVMVTTGGTILKDDILRIYQKVQLIIATPGRILDLMDKKVADMSHCRILVLDEADKLLSLDFQGMLDHVILKLPKDPQILLFSATFPLTVKNFMEKHLREPYEINLMEELTLKGVTQYYAFVQERQKVHCLNTLFSKLQINQSIIFCNSTQRVELLAKKITELGYCCYYIHAKMAQAHRNRVFHDFRQGLCRNLVCSDLFTRGIDVQAVNVVINFDFPRMAETYLHRIGRSGRFGHLGIAINLITYEDRFDLHRIEKELGTEIKPIPKVIDPALYVANVGASVGDTCNNSDLNNSANEEGNVSK"
2,binds,"HA-tagged Dm NOT2 (protein, UniProt Q94547 1-585) MANLNFQQPPRSIANAALAGRTTGGFGGSSLAGHVTPTSGMFQTDFANSYPGTANYGQAPQQQQQQQQQPQLSPNRNAQLSVGGPAISSGNRNANLFGQRQFVERRAMQGLGSGPMSNMGNFMQTGRGGYGTGGGGGGPLNNFHVFGGGGGSDTSTPALLDPTEFPSLTNARGQNDQTLPQSNPLQPPGSKPYGNFFTSFGMVKQPTSEQSEFTMSNEDFPALPGTQNSDGTTNAVGSVAGTGGSGGASTENHLDGTEKPMNSIVVSGSASGSSGSNVGVVGGNGLGAVGSGIGGLAVGGGGGAGSSGGGGVGGNAASGVVGGSHVGLVGSNSGIGGVNSVPNSNAMMGVGGGLGSGSGSSGSGAGGEHLNDNSSNDKLVKSGVQTSPDGKVTNIPATMVNNQFGMVGLLTFIRAAETDPNLVTLSLGTDLTGLGLNLNSQESLHTTFAGPFVAQPCRAQDVEFNVPPEYLINFAIRDKLTAPVLKKLQEDLLFFLFYTNIGDMMQLMAAAELHSREWRYHVEEKIWITRIPGIDQYEKNGTKERGTFYYFDAQSWKRLSKVFQIDPEKLDKCPNISAFMNGQSV"
3,binds,"HA-tagged Dm PAN3 (protein, UniProt Q95RR8 1-790) MCSTYGLLSFEFSDTAAMDPIFFSPTNGIPSESKLATYMNRQNVATPSGYGLNNGFSLLNLDSPLNKKSQVTPQSPEFIPTRLGSTPNFYAPYHNAPMQLSNGLNGVNGLTAAAAAAAAAAAAAAAAVPSSTSSASSASVTISKTANGGASMLALQKTASIASVTIAQQQPQHPQKQQQHPPSVGGGAVSAASAPIAISGAPPNPAAAPFVSSMSAQTPLKGRGAMMRQESPTAAMISGAGPGEKSPPHGMTPHGASPIPSALPTSVHQENVGGTIYFYPTANAQNSQPVVNSMVVDGTHPALHGVSAVAPMSAGVPAAMMYTGHVYPGPSSNVVTMQPKTLLESAFFMPDEMRAEVLARNEISNLIMDAAEAAQHALPLEVENYHALYPLEPPAQPLHAKLTFPATTYRATHNTTGYKYCLRRIHGFRLQSTKCMTLVEMWKKLQHTNVVQLREVFTTKAFGDNSLVLVYDYHPGSQTLLAKYFTPAPETNGYTDPFQGEARPFSHKSNMQRTSNGPLLPEATIWSIIMQLTAGLKAIHHAGLACKVLDPTKIIVTGKRVRFSSCCISDITQFDPNASNPLALVNMHQQDDLTALGRLVLALACRCLQSVQRDNVQSSIDMVTRNYSTDLRNFIVYLFTTNNRRSVTDLMPMIGARFYTQLDALQSKIDMQEDELAKEMENGRLYRILVKLNSINERPDFNLDCTWSETGDRYMLKLFRDYLFHSVTEDGRPWLDHAHIVQCLNKLDAGSIERVQLMSRDEQSVLIVSYAELKNCLENAFSELMSSAAN"

# No constants are given. Whether binding was seen depends on the method and setting. In cells and extracts the contact can be indirect. Binding can be weak; no strength is given. Sequences can lack the tags named with a protein.
